Measured values published in PubChem BioAssay AID1259415 (National Center for Advancing Translational Sciences (NCATS), 2018).
In all, about 410,000 compounds went through this assay and about 18,000 (4.4%) were called active. This list was built around the results that the source calls inconclusive (neither active nor inactive); the mix of calls is not that of the screen. Rule as the data show it: active = activity change below about -60%; inconclusive = no clear call, values can overlap the other calls; inactive = above about -39%.

experiment: qHTS Assay for inhibitors of the human cytomegalovirus (HCMV); details: HFF cells, HCMV-luciferase reporter, 72 h; at 57.5 µM; stronger effect = lower value
Method in brief: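 Inhibition of viral replication was scored as loss of reporter luminescence in HFFs infected with HCMV-luciferase (MOI 1 PFU/cell) for 72 h; compounds tested at 2 doses, normalized to buffer and Salinomycin controls.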
% is scaled to controls: 0 for no effect and ±100 for the full control effect.

SMILES	activity change, negative = inhibition
NC(=O)[C@H]1CC2(CC(c3cccc(NC(=O)COc4ccc(Cl)cc4)c3)=NO2)CN1C(=O)Cc1ccc([N+](=O)[O-])cc1 (stereo not given in full)	active: -78.3%
CCOC(=O)c1ccc(NC(=O)CSc2nc(N)c(NC(=O)c3ccc(Br)o3)c(=O)[nH]2)cc1	inconclusive: -45.9%
CC(C)Oc1ccc(CCC(=O)NNC(=O)CCC(=O)O)cc1	inconclusive: -52.3%
COc1ccc(Cn2c(-c3ccco3)nc3c(c(=O)c4ccccc4n3C)c2=O)cc1	inconclusive: -57.3%
Cc1cccc(Nc2nc(-c3c(C)nc4ccccn34)cs2)c1	active: -94.5%
COc1cccc(NC(=O)C2CCN(S(=O)(=O)c3cc(-c4noc(C)n4)ccc3C)CC2)c1	active: -72.4%
CCN(CC(=O)Nc1ccc(NC(C)=O)cc1)C(=O)c1cc2ccccc2oc1=O	inactive: -28.7%
O=C(Cn1cc(SCc2ccc(F)cc2)c2ccccc21)N1CCOCC1	inactive: 10.3%
CCc1ccc(N2C(=O)CS(=O)(=O)C23C(=O)N(Cc2ccccc2F)c2ccccc23)cc1 (stereo not given)	inactive: -6.59%
CCOC(=O)CNC(=S)N(CCCN1CCCCC1)Cc1cccs1	inactive: -33.8%
O=c1c2ccccc2cnn1Cc1n[nH]c(=S)n1-c1ccccc1Cl	inactive: -11.6%
Cc1ccc(NC(=O)C(C)N2CCCC2)cc1Cl (stereo not given)	inconclusive: -52%
Fc1ccc(/C=N/NC(=S)Nc2ccc(Cl)cc2Cl)cc1	inconclusive: -52.7%
O=C(CNC(=O)c1ccccc1F)NCC(c1cccs1)N1CCOCC1 (stereo not given)	inactive: 0%
Nc1nc(N)nc(-c2cccc(Br)c2)n1	inactive: 17.1%
CCc1nc2ccc(C(=O)NCCOc3ccc(OC)cc3)cn2c1N(C)Cc1cccs1	inconclusive: -40.6%
CCOc1ccc(CCNC(=O)c2ccc3c(c2)N(Cc2cccc(Cl)c2)C(=O)c2ccccc2S3(=O)=O)cc1OCC	inactive: -37.7%
Cc1ccc(NC(=O)c2ccc(F)c(S(=O)(=O)N3CCc4ccccc4C3)c2)cc1F	active: -67.5%
O=C1/C(=C/c2ccncc2)N=C2CCCCCN12	inactive: -31.5%
CCOC(=O)c1[nH]c2c(c1C)C(=O)CC(c1ccc(F)cc1)C2 (stereo not given)	inconclusive: -53.2%
COCCCNc1nc2ccccc2nc1NS(=O)(=O)c1cc(Cl)ccc1Cl	inconclusive: -40.3%
O=C(NCCc1c[nH]c2ccccc12)C(=O)NCC1OCCN1S(=O)(=O)c1ccc(Cl)cc1 (stereo not given)	inconclusive: -53.8%
COc1cccc(CNc2nc(NCc3ccccc3)nc3ccsc23)c1	active: -102%
Cc1ccc(S(=O)(=O)N2CCOCC2)cc1NC(=O)CSc1nnc(N)s1	inconclusive: -40.6%
CCOC(=O)C1(CCCc2ccccc2)CCN(Cc2cn(CC)nc2C)CC1	inconclusive: -54.4%
S=c1nc[nH]c2c1sc1nc(N3CCOCC3)c3c(c12)CCCC3	inconclusive: -47.8%
CC(C)(C)OC(=O)N1CCC(c2c(C(=O)N3CCOCC3)cnn2-c2cccc(F)c2)CC1	inactive: 14.2%
Clc1cccc(OCCN2CCN(CCOc3cccc(Cl)c3)CC2)c1	active: -96.1%

2 of the compounds above, in markdown.

| SMILES | activity change, negative = inhibition |
| --- | --- |
| CCN(CC(=O)Nc1ccc(NC(C)=O)cc1)C(=O)c1cc2ccccc2oc1=O | inactive: -28.7% |
| O=C(Cn1cc(SCc2ccc(F)cc2)c2ccccc21)N1CCOCC1 | inactive: 10.3% |

Compounds above with a furan ring, fused or not (two):
SMILES	activity change, negative = inhibition
CCOC(=O)c1ccc(NC(=O)CSc2nc(N)c(NC(=O)c3ccc(Br)o3)c(=O)[nH]2)cc1	inconclusive: -45.9%
COc1ccc(Cn2c(-c3ccco3)nc3c(c(=O)c4ccccc4n3C)c2=O)cc1	inconclusive: -57.3%

The list continues.

SMILES	activity change, negative = inhibition
O=C(NC1CCCC1)C(c1ccccn1)N(C(=O)c1csnn1)c1ccccc1Cl (stereo not given)	active: -65.9%
CC(C)[C@H](NC(=O)c1cccc(S(=O)(=O)N2CCOCC2)c1)C(=O)OCC(=O)Nc1cccc(Br)c1	inconclusive: -42.6%
CN(CCc1ccccn1)C(=O)CC1C(=O)NCCN1Cc1ccccc1C(F)(F)F (stereo not given)	inconclusive: -52.6%
COCCCNC(=O)Nc1ccc(Br)cc1Cl	inactive: -18.9%
COC(=O)c1ccccc1-n1cc2c(c1-c1cccc(C)c1)c(=O)n(C)c(=O)n2C	inactive: -10.6%
O=[N+]([O-])c1cc(CN2CCN(c3ccccc3)CC2)c(O)c2ncccc12	active: -88.7%
CCc1cccc(NC(=O)c2ccc(CNS(=O)(=O)c3ccc4c(c3)C(C)(C)C(=O)N4C)cc2)c1	inconclusive: -46%
Cc1cc(N2CCN(S(=O)(=O)c3ccc(Cl)c(Cl)c3)CC2)c2ccccc2n1	inconclusive: -47.1%
S=C(NC1CCCC1)N1CCOCC1	inactive: 38%
O=C(CCc1nnc2ccc(NCc3ccccc3)nn12)NC1CCCCC1	inconclusive: -42%
O=C1NC(=O)C(=Cc2ccco2)S1	inconclusive: -41.8%
COCCN1C(=O)CCC1(C)C(=O)Nc1ccc2c(c1)OCCO2 (stereo not given)	inactive: 38.3%
O=C(Nc1nc(-c2ccccc2)cs1)Nc1ccc(F)cc1F	active: -74.8%
COc1cc2c(cc1OC)C(C(=O)NCc1ccco1)C(c1cccs1)N(C)C2=O (stereo not given)	inconclusive: -43.8%
Cc1cccc(CCNC(=O)C2CCN(c3nc4ccccc4nc3C(F)(F)F)CC2)c1	inactive: -1.29%
Cc1ccc(NC(=O)c2cc(NC(=O)c3ccccc3C(=O)O)ccc2N2CCCCC2)cc1	inconclusive: -44%
CCN(Cc1ccc(OC)c(COC)c1)CC1CCCN(CCc2cccc(OC)c2)C1 (stereo not given)	active: -74.9%
O=C(Cn1nc(-c2ccccc2)nc1-c1ccccc1)OC1CCCCC1	inconclusive: -47.2%
C=CCOn1c(=O)c(-c2ccc(OCC)cc2)[n+]([O-])c2ccccc21	inconclusive: -45%
COc1ccccc1NC(=O)c1ccc(S(=O)(=O)N(C)c2ccccc2)cc1	inconclusive: -40.4%
C=CCNc1nc(N)c(C(=C(C#N)C#N)c2ccc(Br)cc2)s1	inconclusive: -53.2%
Cc1cc(=O)oc2cc(OCC(=O)Nc3cccc(S(=O)(=O)N(C)C)c3)ccc12	inconclusive: -58.4%
CC1CCN(c2ccccc2NC(=O)c2ccc(N3CCOCC3)c([N+](=O)[O-])c2)CC1	inconclusive: -40.8%
CCOC(=O)c1oc2cccc(O)c2c1C	inactive: 25.6%
NS(=O)(=O)c1cccnc1Nc1ccc(Cl)c(Cl)c1	inconclusive: -51.5%
Cc1ccc(-c2nnc(N3CCN(C(=O)c4cccs4)CC3)c3ccccc23)cc1	inactive: 8.1%
O=S(=O)(Nc1ccc(Cc2ccncc2)cc1)c1ccc(Br)s1	inconclusive: -48.6%
